The values that follow come from PMC9984195.

Sequences of proteins named here, by UniProt entry; tags and fusion partners are left off.
UniProt Q61025: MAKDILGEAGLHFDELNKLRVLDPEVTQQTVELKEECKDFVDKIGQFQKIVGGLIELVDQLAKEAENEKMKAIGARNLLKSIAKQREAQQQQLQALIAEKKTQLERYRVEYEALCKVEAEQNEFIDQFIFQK

The target of one experiment is T1, Cep78-HA (mouse) (UniProt Q6IRU7).
T1 sequence: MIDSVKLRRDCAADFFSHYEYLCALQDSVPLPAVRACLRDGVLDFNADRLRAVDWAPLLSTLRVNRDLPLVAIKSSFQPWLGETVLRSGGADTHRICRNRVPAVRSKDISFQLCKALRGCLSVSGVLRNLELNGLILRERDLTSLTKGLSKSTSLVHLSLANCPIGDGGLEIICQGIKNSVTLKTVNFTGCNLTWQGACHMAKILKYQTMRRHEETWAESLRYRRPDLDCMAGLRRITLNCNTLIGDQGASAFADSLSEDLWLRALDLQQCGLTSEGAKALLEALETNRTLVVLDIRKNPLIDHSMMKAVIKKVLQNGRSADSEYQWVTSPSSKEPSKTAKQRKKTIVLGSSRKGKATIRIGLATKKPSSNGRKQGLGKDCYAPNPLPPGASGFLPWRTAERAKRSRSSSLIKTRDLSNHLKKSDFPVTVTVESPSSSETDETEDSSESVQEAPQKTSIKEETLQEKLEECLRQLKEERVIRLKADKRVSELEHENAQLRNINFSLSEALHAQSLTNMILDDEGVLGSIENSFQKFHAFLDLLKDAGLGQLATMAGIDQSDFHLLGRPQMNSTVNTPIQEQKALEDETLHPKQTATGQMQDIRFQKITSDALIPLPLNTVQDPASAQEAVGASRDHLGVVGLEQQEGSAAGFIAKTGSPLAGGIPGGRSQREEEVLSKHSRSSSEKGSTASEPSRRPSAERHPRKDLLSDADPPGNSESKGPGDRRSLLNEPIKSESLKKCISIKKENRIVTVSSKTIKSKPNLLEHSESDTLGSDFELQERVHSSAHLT
Kind of experiment: co-IP; HEK293T cells co-transfected with HA- and Flag-tagged mouse proteins, lysed 48 hr after transfection in Pierce IP lysis buffer; anti-HA magnetic beads or anti-DYKDDDDK resin at 4°C overnight; legend: 'in 1% SDS'; immunoblot with anti-HA or anti-Flag; Ap80-NB-HA as negative control.

The target of experiment [1] is T2, Centrosomal protein of 78 kDa (Cep78), endogenous mouse testicular protein (mouse (endogenous in testis)) (UniProt Q6IRU7).
T2 sequence: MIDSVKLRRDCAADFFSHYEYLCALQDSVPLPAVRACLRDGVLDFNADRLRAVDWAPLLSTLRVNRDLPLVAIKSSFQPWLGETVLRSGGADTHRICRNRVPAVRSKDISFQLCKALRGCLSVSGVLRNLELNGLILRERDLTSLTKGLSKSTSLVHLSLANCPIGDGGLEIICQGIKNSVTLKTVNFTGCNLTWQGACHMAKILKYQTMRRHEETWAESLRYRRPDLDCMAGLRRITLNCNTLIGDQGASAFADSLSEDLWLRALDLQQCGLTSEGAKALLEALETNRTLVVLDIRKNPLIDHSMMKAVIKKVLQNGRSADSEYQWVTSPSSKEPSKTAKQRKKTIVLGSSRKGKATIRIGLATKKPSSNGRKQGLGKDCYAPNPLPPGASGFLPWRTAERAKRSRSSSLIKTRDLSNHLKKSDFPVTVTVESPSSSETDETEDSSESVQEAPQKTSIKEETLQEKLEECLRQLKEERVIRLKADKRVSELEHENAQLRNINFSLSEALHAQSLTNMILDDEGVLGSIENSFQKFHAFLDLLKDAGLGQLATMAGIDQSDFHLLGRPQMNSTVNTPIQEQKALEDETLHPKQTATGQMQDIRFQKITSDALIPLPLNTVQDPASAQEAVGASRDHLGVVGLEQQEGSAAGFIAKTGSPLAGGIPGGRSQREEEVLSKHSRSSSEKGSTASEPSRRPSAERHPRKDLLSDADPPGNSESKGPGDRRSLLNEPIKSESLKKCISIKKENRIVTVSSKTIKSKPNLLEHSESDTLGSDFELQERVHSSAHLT
The experiment is described as follows: SEC; 2.43 mg wild type C57BL/6J mouse testicular lysate on a Superose 6 increase 10/300 GL column, 1 mL fractions western blotted for Ttc21a, Cep78 and Ift20, Vrk1 as negative control. (In gel filtration, larger molecules generally elute earlier.)

No constants are given. Whether binding was seen depends on the method and setting. For some of these results: In cells and extracts the contact can be indirect. Some entries that bind do so weakly or less than the wild type. For some of these results: Sequences can lack the tags named with a protein.

In the case of Ift20-Flag (from UniProt Q61025 1-132), in the experiment with Cep78-HA (mouse), the binding entry was “binds”.

Regarding “Intraflagellar transport protein 20 homolog (Ift20), endogenous mouse testicular protein (from UniProt Q61025 1-132)”, in experiment [1], the binding result is reported as “binds”.

B1: Ttc21a-Flag (protein, UniProt Q8C0S4 1-1314)
chain: MSSDDSSLMASIIYYSQEKYFHHVLQAANVGLERYSSDPALQFFRAYGILGEDHIHDAISELEGIQSHPDTSLCAVIALLSAHKSCDTIDIEAVQELESSLKEIRRSASSTALYYASLFLWFMGHHDKAREYVDHMLKVSSGSKEGYVLKGWVDLTSSKPHVVKKSIKYLEQGTQDTKDVLGLMGKATYFMTQQNFSGALEVANQVTLACSNFLPALVLKMKLFLARQDWDQTIETGQRILEKDENNIDAWQILAVHELVKEGNTDRAADRVRNLIKALETGEPHNPNLHLKKILVISRLCGRHQVVHRLVSGFLERIFMATPSCALVATELGYLFILHQQVKEACLWYKEAMKLEENRLAALAGSIWCQILQGQLEEAAHQLEFLKEVQQSLGKSELLVFLQALVAAKKQRLEQEATALLKEAVEVHFSSMQGLALSPEYFEKLDPLFLVCIAKEYLHFCPKQPRSPGQLVSPLLKQVAMILSPVVKVAPAMMEPLYVTAQVKFLSGELENAQSTLQRCLELDPTFVDAHLLMSQIYLAQGNFAMCSHCLELGVSHNFQVRDHPLYHFIKARALNKTGDYAEAIKTLKMIIKVPTSKAEEGRKSQSPSVRPSERASILLELVEALRLNGELHEATKIMQDAINEFSGTPEEMRITVANVDLALSKGNVDLALNMLRGITPKQPCYTEAKEKMASIYLHTRKDVRLYIGCYVELCEHLPGPHSSLLLGDAFMNIQEPEKALEVYDEAYRKNPHDASLVSRIGQAYVKTHQYAKAINYYEAAQKISGQDFLCCELAELLLKLKKYHKAEKVLKQALERDSGVKDIPSMINEVKCLLLLAKVYKSHKKEEVMETLNLALDLQSRILKRVPLEQSEMIPFQNQLAASICIQIGEHHLAEKDYDSALKSYKDALAYSPTDSKVVLELAHLYLLLGQLDLCEQRCAPLLEMEQTHERAAVMLADLMFRRQNYETAINLYHQVLEKAPDNFLVLNKLVDLLRRSGKLEEAPAFFELAKKVSSRVPLEPGFNYCQGIYFWHIGQPNEALRFLNKARKDSTWGQLATCYMVQICLNPDNEIVGGEAFESLVGDSNSASRKESQQHGVRTAEKLLREFYPHSESGQTQLRLLQNLCLLATREKANVEVALGAFIEMAQAEKDSIPALLAMAQAYILLKQVPKARTQLKRLAKVPWTVDEAEDLEKSWLLLADIYCQGGKFDLALELLRRCLQYNKSCCRAYEYMGFIMEKEQSYKDAATNYELAWKYSHQANPAIGFKLAFNYLKDKKFVDAIEVCHSVLTEHPKYPKIREEILEKAQGSLRP
On to B1, for which, in the experiment with Cep78-HA (mouse), the binding result is “binds”.

B2: Tetratricopeptide repeat protein 21 A (Ttc21a), endogenous mouse testicular protein (protein, UniProt Q8C0S4 1-1314)
chain: MSSDDSSLMASIIYYSQEKYFHHVLQAANVGLERYSSDPALQFFRAYGILGEDHIHDAISELEGIQSHPDTSLCAVIALLSAHKSCDTIDIEAVQELESSLKEIRRSASSTALYYASLFLWFMGHHDKAREYVDHMLKVSSGSKEGYVLKGWVDLTSSKPHVVKKSIKYLEQGTQDTKDVLGLMGKATYFMTQQNFSGALEVANQVTLACSNFLPALVLKMKLFLARQDWDQTIETGQRILEKDENNIDAWQILAVHELVKEGNTDRAADRVRNLIKALETGEPHNPNLHLKKILVISRLCGRHQVVHRLVSGFLERIFMATPSCALVATELGYLFILHQQVKEACLWYKEAMKLEENRLAALAGSIWCQILQGQLEEAAHQLEFLKEVQQSLGKSELLVFLQALVAAKKQRLEQEATALLKEAVEVHFSSMQGLALSPEYFEKLDPLFLVCIAKEYLHFCPKQPRSPGQLVSPLLKQVAMILSPVVKVAPAMMEPLYVTAQVKFLSGELENAQSTLQRCLELDPTFVDAHLLMSQIYLAQGNFAMCSHCLELGVSHNFQVRDHPLYHFIKARALNKTGDYAEAIKTLKMIIKVPTSKAEEGRKSQSPSVRPSERASILLELVEALRLNGELHEATKIMQDAINEFSGTPEEMRITVANVDLALSKGNVDLALNMLRGITPKQPCYTEAKEKMASIYLHTRKDVRLYIGCYVELCEHLPGPHSSLLLGDAFMNIQEPEKALEVYDEAYRKNPHDASLVSRIGQAYVKTHQYAKAINYYEAAQKISGQDFLCCELAELLLKLKKYHKAEKVLKQALERDSGVKDIPSMINEVKCLLLLAKVYKSHKKEEVMETLNLALDLQSRILKRVPLEQSEMIPFQNQLAASICIQIGEHHLAEKDYDSALKSYKDALAYSPTDSKVVLELAHLYLLLGQLDLCEQRCAPLLEMEQTHERAAVMLADLMFRRQNYETAINLYHQVLEKAPDNFLVLNKLVDLLRRSGKLEEAPAFFELAKKVSSRVPLEPGFNYCQGIYFWHIGQPNEALRFLNKARKDSTWGQLATCYMVQICLNPDNEIVGGEAFESLVGDSNSASRKESQQHGVRTAEKLLREFYPHSESGQTQLRLLQNLCLLATREKANVEVALGAFIEMAQAEKDSIPALLAMAQAYILLKQVPKARTQLKRLAKVPWTVDEAEDLEKSWLLLADIYCQGGKFDLALELLRRCLQYNKSCCRAYEYMGFIMEKEQSYKDAATNYELAWKYSHQANPAIGFKLAFNYLKDKKFVDAIEVCHSVLTEHPKYPKIREEILEKAQGSLRP
Take B2: in experiment [1], the binding result was “binds”.
